The list shows a part of the results. These are further read-outs of the screen, such as a control signal, another cell line or another target. No call is given for them. The list favours compounds with an active or inconclusive main result. Potencies come from curve fits of mixed quality, noted in brackets.
Experiment: qHTS Assay to Find Inhibitors of Chronic Active B-Cell Receptor Signaling
Settings: ABC-DLBCL IkBa-CBG/CBR reporter, luminescence ratio (green luciferase fused to IkBa over red control in TMD8 lymphoma cells), 4 h
In short: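 Concentration-response series (up to 46 uM) were applied to TMD8 dual-reporter cells for 4 h at 37C with doxycycline. Green/red ratio, after filter-overlap correction, defined %Activity; red signal alone was normalised to basal cells and zero luminescence.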

[1] = measured here: CBR red luminescence, cell number
[2] = measured here: IkBa-CBG green luminescence

COc1ccccc1OCC(=O)Nc1ccc(S(=O)(=O)Nc2cc(C)nc(C)n2)cc1
AC50 [1]: 0.92 µM [rising, full curve, poor fit]

O=C(NCCSCc1ccc(Cl)cc1Cl)c1ccc(CN2CCOCC2)cc1
AC50 [1]: 6.31 µM [rising, single point]

O=C(NC(=S)NC1CCCc2ccccc21)c1ccco1 (centres undefined)
AC50 [1]: 17.8 µM [rising, single point]

O=C(Nc1ccc(NC(=O)C2CCCCC2)nc1)c1cccc(F)c1
AC50 [1]: 6.31 µM [rising, single point]

COc1ccc(/C=C/C(=O)Oc2cccc(/C=N/NC(=O)Cc3ccc(Br)cc3)c2)cc1
AC50 [1]: 22.4 µM [rising, single point]

CCSc1nnc(NC(=O)CSc2nnc(Cc3cccn3C)n2-c2ccc(C)cc2)s1
AC50 [1]: 18.4 µM [falling, single point]

COc1ccc2c(CC(=O)OCC(=O)Nc3ccc4c(c3)OCO4)coc2c1
AC50 [1]: 29.1 µM [rising, single point]

Cc1csc(NC(=O)CCc2c(C)nc3cc(-c4ccc(Cl)cc4)nn3c2C)n1
AC50 [1]: 0.184 µM [falling, partial curve]

CCC(CC)C(=O)c1c[nH]c(C(=O)NCCOC)c1
AC50 [1]: 20 µM [rising, single point]

OCC(Cc1ccccc1)Nc1c2ccccc2nc2ccccc12 (centres undefined)
AC50 [1]: 29.1 µM [falling, single point]

Cc1cccc(NC(=O)c2cc(S(=O)(=O)NCc3ccco3)ccc2F)c1C
AC50 [1]: 17.8 µM [falling, single point]

COc1ccc(-c2nnc(SCC(=O)Nc3cc(C)on3)o2)cc1
AC50 [2]: 22.4 µM [falling, single point]

COc1cc(/C=N/N=C2/NC(=O)C(Cc3ccc(F)cc3)S2)ccc1O (centres undefined)
AC50 [1]: 2.82 µM [falling, partial curve]

Cc1ccc2c(C)nc(Nc3nc(CSc4nc5ccccc5[nH]4)cc(=O)[nH]3)nc2c1
AC50 [1]: 2.24 µM [falling, full curve, poor fit]

CC1=CC(C)C2C(=O)N(CCCN(C)C)C(=O)C2C1 (centres undefined)
AC50 [1]: 4.61 µM [rising, full curve, poor fit]

C[C@H](C(=O)CC(=O)OC(C)(C)C)[C@H](O)c1ccc(C(F)(F)F)cc1
AC50 [1]: 6.31 µM [falling, single point]

CCn1cc(C(=O)N2CCN(c3cccc(Cl)c3)CC2)c2cc(OC)c(OC)cc2c1=O
AC50 [1]: 20.6 µM [falling, single point]

Cc1cc(C)c(C#N)c(N2CCSCC2)n1
AC50 [1]: 31.6 µM [rising, single point]

O=C(CN1CCCc2ccccc21)N/N=C/c1ccc(F)cc1F
AC50 [1]: 11.2 µM [falling, partial curve, poor fit]

CN(C)S(=O)(=O)Oc1cccc(C(=O)Nc2cccc(Cl)c2)c1
AC50 [1]: 25.1 µM [falling, single point]

N#CC1(NC(=O)CN2c3cccc4cccc(c34)S2(=O)=O)CCCCC1
AC50 [1]: 16.4 µM [rising, partial curve, poor fit]

CCOC(=O)c1ccc(NC(=O)CSc2nc(C)nc3c2c(=O)n(C)c(=O)n3C)cc1
AC50 [1]: 32.6 µM [rising, single point]

CSS(=O)(=O)c1cccc2cccnc12
AC50 [1]: 35.5 µM [falling, single point]

Cc1cccc(N/N=C/c2ccc(O)c(O)c2O)c1
AC50 [1]: 1.78 µM [rising, partial curve, poor fit] | AC50 [2]: 25.1 µM [rising, partial curve, poor fit]

O=C(COc1ccc(/C=N/NC(=O)c2ccccc2)cc1)Nc1ccc([N+](=O)[O-])cc1
AC50 [1]: 35.5 µM [falling, partial curve, poor fit]

COc1cccc(-c2cc3onc(-c4ccccc4)c3c(=O)n2C)c1
AC50 [1]: 23.1 µM [falling, single point]

COCCNC(=O)CSc1nc2cc(OC)c(OC)cc2c(=O)n1Cc1ccco1
AC50 [1]: 0.708 µM [falling, full curve]

O=C(CNC(=O)c1ccco1)OCc1ccc(Cl)cc1
AC50 [1]: 4.11 µM [rising, single point]

CC1CCOC2(O1)C(=O)N(CN1CCN(c3cccc(Cl)c3)CC1)c1ccccc12 (centres undefined)
AC50 [1]: 6.31 µM [rising, single point]

COc1ccc(OCc2cc(C(=O)N[C@H]3CCCCNC3=O)no2)c(Cl)c1
AC50 [1]: 35.5 µM [rising, single point]

CC1=NN(c2nc3ccccc3[nH]2)C(=O)/C1=C/N(C)C
AC50 [1]: 3.55 µM [falling, full curve]

NNC(=S)NCCc1ccccc1
AC50 [1]: 17.8 µM [falling, partial curve, poor fit]

O=C1Nc2ccccc2/C1=C/C(=O)c1cccs1
AC50 [1]: 11.6 µM [falling, partial curve]

— PubChem BioAssay AID493014 (National Center for Advancing Translational Sciences (NCATS), 2011)
